# Reference: the supplement of paper PMC6411743
# Protein sequences, listed by entry. Tags and fused reporters are not part of them. Lines headed by an entry give the natural chain unless they say otherwise; changes in a name come on top.
# UniProt P49006: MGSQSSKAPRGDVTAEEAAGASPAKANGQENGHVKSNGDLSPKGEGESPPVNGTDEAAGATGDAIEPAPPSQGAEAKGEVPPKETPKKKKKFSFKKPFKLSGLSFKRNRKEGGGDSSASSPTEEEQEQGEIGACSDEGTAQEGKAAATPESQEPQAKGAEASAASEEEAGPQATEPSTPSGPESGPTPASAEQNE
# UniProt P49773: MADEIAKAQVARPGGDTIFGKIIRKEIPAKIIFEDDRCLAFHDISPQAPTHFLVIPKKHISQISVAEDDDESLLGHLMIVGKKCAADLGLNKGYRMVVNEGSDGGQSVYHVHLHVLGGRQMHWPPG
# UniProt P52788: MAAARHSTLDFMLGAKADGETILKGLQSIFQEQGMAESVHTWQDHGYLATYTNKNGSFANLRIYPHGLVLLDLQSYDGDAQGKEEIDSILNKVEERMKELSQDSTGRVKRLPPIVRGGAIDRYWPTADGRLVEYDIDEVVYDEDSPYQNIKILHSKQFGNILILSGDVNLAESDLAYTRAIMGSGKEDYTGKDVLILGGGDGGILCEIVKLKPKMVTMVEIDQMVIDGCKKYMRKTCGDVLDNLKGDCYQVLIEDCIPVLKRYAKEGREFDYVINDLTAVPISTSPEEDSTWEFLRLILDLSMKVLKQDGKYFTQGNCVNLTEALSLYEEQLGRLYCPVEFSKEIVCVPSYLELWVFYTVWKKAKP
# UniProt P43250, whole entry, looked up: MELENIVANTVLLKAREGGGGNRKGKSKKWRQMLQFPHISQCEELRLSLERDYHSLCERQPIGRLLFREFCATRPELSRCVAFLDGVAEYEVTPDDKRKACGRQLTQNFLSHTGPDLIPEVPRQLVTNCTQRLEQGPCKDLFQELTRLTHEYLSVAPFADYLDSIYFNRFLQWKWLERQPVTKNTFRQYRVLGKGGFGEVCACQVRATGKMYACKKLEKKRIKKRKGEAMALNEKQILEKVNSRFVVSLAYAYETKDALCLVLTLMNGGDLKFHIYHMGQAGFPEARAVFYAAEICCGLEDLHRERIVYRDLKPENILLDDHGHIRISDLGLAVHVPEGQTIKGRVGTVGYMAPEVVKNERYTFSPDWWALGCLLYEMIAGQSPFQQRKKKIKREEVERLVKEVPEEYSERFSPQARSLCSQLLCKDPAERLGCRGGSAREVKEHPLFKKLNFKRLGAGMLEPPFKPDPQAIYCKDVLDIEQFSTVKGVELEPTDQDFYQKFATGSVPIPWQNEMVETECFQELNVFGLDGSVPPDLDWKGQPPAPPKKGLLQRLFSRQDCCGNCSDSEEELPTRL
# UniProt P51572: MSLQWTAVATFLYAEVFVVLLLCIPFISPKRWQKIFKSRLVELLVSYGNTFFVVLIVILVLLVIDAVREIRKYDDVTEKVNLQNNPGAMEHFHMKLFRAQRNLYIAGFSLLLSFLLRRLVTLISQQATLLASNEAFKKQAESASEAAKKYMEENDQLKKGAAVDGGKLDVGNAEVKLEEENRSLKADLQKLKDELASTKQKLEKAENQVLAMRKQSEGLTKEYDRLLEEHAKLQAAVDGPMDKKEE
# UniProt P43487, whole entry: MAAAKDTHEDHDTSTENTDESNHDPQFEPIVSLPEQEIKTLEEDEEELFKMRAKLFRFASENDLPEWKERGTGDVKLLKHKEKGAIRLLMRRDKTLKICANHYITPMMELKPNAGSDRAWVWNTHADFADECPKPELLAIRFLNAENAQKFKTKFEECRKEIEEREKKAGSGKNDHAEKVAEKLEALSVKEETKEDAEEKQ
# UniProt P42695: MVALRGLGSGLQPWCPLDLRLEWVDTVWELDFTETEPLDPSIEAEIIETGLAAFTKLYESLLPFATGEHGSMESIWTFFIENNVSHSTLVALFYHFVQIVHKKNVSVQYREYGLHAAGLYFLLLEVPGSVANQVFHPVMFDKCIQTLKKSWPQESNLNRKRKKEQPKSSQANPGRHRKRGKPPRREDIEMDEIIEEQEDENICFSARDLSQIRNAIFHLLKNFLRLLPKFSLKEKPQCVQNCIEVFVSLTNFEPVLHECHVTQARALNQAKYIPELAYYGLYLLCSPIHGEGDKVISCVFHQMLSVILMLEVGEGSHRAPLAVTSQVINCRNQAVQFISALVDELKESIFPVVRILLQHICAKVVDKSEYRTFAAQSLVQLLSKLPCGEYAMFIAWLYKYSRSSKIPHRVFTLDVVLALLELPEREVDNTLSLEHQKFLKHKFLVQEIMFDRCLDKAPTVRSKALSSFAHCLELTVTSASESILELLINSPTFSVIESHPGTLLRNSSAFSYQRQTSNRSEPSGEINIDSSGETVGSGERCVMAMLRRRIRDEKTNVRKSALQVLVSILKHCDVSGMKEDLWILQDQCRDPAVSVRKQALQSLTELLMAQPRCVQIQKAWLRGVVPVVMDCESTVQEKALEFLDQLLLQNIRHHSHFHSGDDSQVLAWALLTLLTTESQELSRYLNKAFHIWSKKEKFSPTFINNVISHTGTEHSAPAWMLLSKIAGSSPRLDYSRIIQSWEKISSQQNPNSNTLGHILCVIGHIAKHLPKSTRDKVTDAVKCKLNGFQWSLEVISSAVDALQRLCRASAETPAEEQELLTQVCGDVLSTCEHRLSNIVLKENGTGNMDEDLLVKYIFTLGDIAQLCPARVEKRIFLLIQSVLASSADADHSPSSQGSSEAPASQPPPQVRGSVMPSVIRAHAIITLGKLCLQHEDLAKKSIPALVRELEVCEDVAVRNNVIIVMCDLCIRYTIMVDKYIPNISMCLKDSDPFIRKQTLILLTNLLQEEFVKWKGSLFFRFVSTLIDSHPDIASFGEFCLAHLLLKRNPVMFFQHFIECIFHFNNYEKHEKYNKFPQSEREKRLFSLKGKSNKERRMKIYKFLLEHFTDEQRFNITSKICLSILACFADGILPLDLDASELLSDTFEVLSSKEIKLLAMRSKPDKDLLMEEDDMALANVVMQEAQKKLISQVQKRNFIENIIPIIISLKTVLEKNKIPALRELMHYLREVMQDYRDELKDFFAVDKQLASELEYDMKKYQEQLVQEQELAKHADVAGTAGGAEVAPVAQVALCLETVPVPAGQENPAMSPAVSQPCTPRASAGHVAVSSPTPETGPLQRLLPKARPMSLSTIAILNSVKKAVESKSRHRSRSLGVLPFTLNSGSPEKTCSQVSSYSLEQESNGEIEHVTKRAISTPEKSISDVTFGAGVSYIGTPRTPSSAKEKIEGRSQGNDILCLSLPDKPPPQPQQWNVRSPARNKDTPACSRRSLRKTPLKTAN
# UniProt P51948: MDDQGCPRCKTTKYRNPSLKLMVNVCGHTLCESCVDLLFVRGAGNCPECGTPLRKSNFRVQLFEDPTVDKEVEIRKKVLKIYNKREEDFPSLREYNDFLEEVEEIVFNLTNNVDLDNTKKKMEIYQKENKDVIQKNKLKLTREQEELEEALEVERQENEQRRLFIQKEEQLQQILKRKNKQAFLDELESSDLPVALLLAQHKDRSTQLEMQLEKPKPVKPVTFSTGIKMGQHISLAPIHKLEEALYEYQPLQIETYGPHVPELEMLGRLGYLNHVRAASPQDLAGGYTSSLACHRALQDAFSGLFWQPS
# UniProt P46060: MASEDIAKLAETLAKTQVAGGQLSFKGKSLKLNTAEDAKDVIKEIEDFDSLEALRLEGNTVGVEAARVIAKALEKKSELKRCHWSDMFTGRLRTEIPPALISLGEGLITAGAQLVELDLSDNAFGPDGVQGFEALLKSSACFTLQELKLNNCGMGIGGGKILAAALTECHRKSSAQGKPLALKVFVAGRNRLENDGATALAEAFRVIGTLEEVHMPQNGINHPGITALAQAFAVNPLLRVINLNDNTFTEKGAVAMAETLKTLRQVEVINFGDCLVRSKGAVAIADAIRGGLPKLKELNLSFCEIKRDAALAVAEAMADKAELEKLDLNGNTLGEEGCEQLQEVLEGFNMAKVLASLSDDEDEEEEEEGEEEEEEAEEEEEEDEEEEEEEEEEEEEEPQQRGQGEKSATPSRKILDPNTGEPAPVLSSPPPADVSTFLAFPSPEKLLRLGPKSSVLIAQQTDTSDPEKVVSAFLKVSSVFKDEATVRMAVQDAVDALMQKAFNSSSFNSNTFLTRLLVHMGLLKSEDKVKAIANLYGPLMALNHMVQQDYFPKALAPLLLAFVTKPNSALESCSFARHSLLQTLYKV
# UniProt P50148, whole entry: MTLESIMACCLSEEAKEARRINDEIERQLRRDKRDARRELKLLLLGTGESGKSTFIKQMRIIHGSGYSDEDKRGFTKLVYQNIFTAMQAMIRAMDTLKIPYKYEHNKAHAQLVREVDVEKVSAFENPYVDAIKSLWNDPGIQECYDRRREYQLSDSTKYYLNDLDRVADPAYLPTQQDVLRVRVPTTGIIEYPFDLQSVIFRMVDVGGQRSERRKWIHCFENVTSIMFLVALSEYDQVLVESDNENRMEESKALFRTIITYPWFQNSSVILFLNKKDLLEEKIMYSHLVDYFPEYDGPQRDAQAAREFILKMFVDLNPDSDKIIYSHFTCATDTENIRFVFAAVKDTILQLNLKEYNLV
# UniProt P41212: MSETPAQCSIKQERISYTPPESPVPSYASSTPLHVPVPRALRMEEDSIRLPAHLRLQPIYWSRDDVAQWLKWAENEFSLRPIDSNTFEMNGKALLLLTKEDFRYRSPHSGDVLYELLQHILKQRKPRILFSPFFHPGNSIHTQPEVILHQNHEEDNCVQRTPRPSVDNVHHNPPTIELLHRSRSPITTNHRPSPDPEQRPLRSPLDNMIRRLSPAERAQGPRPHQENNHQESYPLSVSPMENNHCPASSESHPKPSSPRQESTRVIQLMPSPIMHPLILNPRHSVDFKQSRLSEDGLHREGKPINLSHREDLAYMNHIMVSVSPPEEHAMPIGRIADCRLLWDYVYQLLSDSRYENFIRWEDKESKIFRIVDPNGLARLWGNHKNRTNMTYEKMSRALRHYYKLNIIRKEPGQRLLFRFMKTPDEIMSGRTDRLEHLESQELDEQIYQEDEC
# UniProt P40692: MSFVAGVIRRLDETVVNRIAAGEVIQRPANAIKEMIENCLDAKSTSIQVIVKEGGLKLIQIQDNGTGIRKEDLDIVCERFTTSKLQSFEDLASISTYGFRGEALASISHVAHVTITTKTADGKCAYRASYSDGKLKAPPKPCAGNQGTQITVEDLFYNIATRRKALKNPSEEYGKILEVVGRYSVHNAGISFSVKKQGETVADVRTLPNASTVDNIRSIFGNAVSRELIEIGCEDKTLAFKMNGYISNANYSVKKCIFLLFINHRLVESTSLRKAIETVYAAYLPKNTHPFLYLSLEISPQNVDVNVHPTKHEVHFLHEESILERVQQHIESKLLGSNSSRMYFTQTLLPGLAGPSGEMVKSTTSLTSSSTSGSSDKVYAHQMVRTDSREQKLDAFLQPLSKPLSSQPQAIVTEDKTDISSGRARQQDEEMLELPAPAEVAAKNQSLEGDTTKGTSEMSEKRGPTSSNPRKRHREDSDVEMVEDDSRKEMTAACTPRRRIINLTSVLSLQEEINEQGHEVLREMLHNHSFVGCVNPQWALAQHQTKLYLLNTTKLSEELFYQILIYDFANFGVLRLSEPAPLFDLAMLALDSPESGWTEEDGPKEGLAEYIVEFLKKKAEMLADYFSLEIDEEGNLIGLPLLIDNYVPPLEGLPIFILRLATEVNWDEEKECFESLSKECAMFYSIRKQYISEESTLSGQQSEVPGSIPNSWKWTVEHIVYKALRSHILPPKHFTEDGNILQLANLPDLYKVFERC
# UniProt P49841: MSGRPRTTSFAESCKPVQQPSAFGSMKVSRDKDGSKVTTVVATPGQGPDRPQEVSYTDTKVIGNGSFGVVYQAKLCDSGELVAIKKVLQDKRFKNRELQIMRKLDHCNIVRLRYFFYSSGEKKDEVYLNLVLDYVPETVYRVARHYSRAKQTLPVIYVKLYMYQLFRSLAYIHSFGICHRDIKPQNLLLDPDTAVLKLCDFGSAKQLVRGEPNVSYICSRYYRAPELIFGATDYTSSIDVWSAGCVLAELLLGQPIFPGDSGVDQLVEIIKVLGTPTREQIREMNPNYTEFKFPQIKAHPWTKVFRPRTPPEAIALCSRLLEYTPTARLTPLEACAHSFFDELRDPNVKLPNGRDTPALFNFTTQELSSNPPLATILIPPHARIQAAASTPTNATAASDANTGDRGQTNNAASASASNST
# UniProt P36873, whole entry, looked up: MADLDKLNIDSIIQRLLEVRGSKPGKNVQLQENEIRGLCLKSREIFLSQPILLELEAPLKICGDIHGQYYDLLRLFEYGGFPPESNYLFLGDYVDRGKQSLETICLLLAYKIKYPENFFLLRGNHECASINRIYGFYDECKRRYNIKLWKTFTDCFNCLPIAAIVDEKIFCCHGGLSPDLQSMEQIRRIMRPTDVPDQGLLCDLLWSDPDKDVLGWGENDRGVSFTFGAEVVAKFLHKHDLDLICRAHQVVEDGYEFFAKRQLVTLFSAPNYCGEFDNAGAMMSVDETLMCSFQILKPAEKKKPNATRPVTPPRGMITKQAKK
# UniProt P36404: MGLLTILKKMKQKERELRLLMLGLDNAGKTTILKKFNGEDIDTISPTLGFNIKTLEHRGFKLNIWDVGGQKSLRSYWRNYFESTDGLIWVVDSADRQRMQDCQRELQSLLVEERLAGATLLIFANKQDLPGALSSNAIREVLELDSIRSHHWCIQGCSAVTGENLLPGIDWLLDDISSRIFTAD
# ± gives the standard deviation of the averaged measurements. This is a selection; strong and weak results do not stand in their true shares. Small differences around the control level are noise.
# Compound: Nc1ncnc2c1ncn2[C@@H]1O[C@H](COP(=O)(O)OP(=O)(O)OP(=O)(O)O)[C@@H](O)[C@H]1O [adenosine triphosphate]
# Experiment: NP40-soluble protein abundance relative to vehicle (solubility fold change) (ratio); higher = more soluble protein in presence of ATP
# In short: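 Data come from three independent experiments in which Dounce-homogenised Jurkat crude lysate was treated at eight concentrations from 0.1 to 10 mM. Treatment ran 10 min at room temperature and then 3 min at 37 °C, after which 0.8% NP40 and benzonase were added for 60 min at 4 °C before ultracentrifugation. The supernatant underwent TMT labelling and LC-MS/MS, and vsn-normalised intensities were expressed as fold change against the detergent-processed vehicle in each replicate.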
Target,NP40-soluble protein abundance (concentration: 0.1mM),NP40-soluble protein abundance (concentration: 0.5mM)
MARCKSL1 (UniProt P49006),1.05 ± 0.11,0.896 ± 0.1
HINT1 (UniProt P49773),0.968 ± 0.04,0.944 ± 0.032
SMS (UniProt P52788),1.04 ± 0.025,1.02 ± 0.067
UniProt P43250-2,1.12 ± 0.045,1.17 ± 0.031
STAT6 (UniProt P42226),1.022 ± 0.006,1.02 ± 0.014
TXLNA (UniProt P40222),0.986 ± 0.028,0.992 ± 0.076
HADHA (UniProt P40939),0.998 ± 0.043,1.01 ± 0.026
UniProt P51572 and related entries,0.876 ± 0.071,0.865 ± 0.06
UniProt P41223,1 ± 0.012,1.03 ± 0.055
UniProt P43487 and related entries,0.892 ± 0.11,0.877 ± 0.14
NCAPD3 (UniProt P42695),1.03 ± 0.032,1.09 ± 0.012
MNAT1 (UniProt P51948),0.985 ± 0.055,1 ± 0.046
KIF11 (UniProt P52732),1.03 ± 0.022,1.03 ± 0.061
EIF2S3 (UniProt P41091),1 ± 0.06,1.042 ± 0.0087
LIG4 (UniProt P49917),1.05 ± 0.079,1.17 ± 0.14
RPS19 (UniProt P39019),0.828 ± 0.19,0.795 ± 0.18
UniProt P50053-2,1.04 ± 0.011,1.03 ± 0.062
UniProt P50995 and related entries,0.9849 ± 0.0039,0.96 ± 0.021
UniProt P51795-2|P51795,1.08 ± 0.069,0.986 ± 0.037
UniProt P52564,1.05 ± 0.056,1.04 ± 0.042
UniProt P49589 and related entries,1.04 ± 0.044,1.03 ± 0.052
PCYT1A (UniProt P49585),1.01 ± 0.035,1.02 ± 0.066
NSF (UniProt P46459),1.03 ± 0.049,1.04 ± 0.055

# 4 entries picked at random from those above:
Target,NP40-soluble protein abundance (concentration: 0.1mM),NP40-soluble protein abundance (concentration: 0.5mM)
UniProt P50995 and related entries,0.9849 ± 0.0039,0.96 ± 0.021
LIG4 (UniProt P49917),1.05 ± 0.079,1.17 ± 0.14
MNAT1 (UniProt P51948),0.985 ± 0.055,1 ± 0.046
HINT1 (UniProt P49773),0.968 ± 0.04,0.944 ± 0.032

# More records:

Target,NP40-soluble protein abundance (concentration: 0.1mM),NP40-soluble protein abundance (concentration: 0.5mM)
RANGAP1 (UniProt P46060),0.961 ± 0.027,0.963 ± 0.029
GNAQ (UniProt P50148),1.04 ± 0.13,1.05 ± 0.074
UniProt P48960 and related entries,0.9763 ± 0.0084,0.916 ± 0.05
GSS (UniProt P48637),1.04 ± 0.078,1.05 ± 0.068
UniProt P47756-2,1.01 ± 0.024,1.02 ± 0.058
ETV6 (UniProt P41212),1.18 ± 0.081,1.21 ± 0.051
UniProt P49768 and related entries,0.916 ± 0.086,0.895 ± 0.049
CASP2 (UniProt P42575),1.04 ± 0.11,1.07 ± 0.14
UniProt P49674,1 ± 0.029,0.995 ± 0.079
MLH1 (UniProt P40692),1.21 ± 0.025,1.32 ± 0.037
PRKX (UniProt P51817),0.957 ± 0.021,1.04 ± 0.03
UniProt P49841 and related entries,1.04 ± 0.046,0.963 ± 0.053
UniProt P36639 and related entries,1.03 ± 0.052,1.05 ± 0.054
UniProt P41229 and related entries,1.03 ± 0.018,1.02 ± 0.02
UniProt P36873 and related entries,1.04 ± 0.08,0.998 ± 0.046
IQGAP1 (UniProt P46940),0.993 ± 0.067,1.02 ± 0.037
UniProt P50570-4|P50570,1.04 ± 0.079,1.06 ± 0.091
UniProt P50548 and related entries,1.03 ± 0.18,1.04 ± 0.074
KNTC1 (UniProt P50748),1.07 ± 0.069,1.02 ± 0.045
UniProt P52306 and related entries,0.973 ± 0.065,0.944 ± 0.033
UniProt P49590 and related entries,1.04 ± 0.057,1.03 ± 0.076
RPL14 (UniProt P50914),0.917 ± 0.04,0.92 ± 0.084
ARL2 (UniProt P36404),1.04 ± 0.084,1.06 ± 0.064
